The results in this text go back to the supplement of paper PMC12067093, “Discovery and optimisation of a covalent ligand for TRIM25 and its application to targeted protein ubiquitination” (Chemical Science, 2025).

By UniProt entry, the sequences of proteins in these tests, tags left out. Where a name states a change or a piece, a line headed by the entry shows the natural chain unless it says otherwise.
UniProt Q9H1A4, whole entry, looked up: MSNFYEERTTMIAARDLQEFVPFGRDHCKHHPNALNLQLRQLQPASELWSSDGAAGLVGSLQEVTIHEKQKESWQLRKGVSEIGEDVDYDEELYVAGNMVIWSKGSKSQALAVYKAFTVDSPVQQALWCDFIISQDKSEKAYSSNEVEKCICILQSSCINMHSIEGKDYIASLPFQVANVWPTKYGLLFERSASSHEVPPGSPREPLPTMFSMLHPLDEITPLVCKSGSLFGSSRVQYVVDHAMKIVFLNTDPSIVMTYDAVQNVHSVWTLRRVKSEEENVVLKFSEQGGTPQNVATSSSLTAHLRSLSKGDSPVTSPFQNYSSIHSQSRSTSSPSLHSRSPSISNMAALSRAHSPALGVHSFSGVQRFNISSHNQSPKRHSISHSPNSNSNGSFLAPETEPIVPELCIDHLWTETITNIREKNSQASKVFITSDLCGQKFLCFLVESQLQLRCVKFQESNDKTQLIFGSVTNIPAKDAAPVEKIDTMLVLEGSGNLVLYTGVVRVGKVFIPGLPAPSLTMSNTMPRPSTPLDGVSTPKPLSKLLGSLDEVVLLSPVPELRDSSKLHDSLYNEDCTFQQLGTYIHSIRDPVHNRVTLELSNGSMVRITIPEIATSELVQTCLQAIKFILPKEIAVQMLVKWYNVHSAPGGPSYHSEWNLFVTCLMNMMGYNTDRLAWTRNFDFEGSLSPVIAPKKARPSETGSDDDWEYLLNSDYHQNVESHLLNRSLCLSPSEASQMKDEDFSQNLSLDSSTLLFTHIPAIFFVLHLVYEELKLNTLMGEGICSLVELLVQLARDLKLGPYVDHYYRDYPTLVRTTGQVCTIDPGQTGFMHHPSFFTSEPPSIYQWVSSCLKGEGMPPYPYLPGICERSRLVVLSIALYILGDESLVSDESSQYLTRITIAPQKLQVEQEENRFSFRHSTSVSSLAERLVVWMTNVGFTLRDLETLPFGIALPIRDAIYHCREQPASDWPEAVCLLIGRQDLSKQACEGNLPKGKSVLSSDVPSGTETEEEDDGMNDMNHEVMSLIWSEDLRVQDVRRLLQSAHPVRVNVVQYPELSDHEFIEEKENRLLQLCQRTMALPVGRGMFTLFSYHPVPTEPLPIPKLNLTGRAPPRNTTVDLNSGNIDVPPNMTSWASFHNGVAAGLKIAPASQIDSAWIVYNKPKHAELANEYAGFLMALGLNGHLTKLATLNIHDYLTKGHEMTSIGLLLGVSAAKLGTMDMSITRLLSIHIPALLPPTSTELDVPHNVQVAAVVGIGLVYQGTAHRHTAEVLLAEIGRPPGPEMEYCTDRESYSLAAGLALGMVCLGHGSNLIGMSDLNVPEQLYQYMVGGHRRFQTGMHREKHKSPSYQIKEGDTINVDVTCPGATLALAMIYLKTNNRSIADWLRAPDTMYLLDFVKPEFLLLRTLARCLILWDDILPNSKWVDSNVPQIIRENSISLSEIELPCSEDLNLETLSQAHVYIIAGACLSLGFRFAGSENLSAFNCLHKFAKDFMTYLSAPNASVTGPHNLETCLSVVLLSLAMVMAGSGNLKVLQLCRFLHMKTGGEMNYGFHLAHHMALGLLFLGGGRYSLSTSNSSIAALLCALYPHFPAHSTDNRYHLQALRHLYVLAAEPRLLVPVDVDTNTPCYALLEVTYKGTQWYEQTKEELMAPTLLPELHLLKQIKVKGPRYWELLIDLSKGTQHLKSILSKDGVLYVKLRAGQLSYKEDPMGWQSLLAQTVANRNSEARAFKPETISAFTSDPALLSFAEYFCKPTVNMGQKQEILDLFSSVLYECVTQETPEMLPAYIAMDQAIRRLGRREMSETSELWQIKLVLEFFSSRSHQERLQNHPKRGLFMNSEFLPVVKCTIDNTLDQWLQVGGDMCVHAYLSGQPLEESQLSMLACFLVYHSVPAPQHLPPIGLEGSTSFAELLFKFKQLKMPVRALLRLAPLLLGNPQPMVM
UniProt Q01432: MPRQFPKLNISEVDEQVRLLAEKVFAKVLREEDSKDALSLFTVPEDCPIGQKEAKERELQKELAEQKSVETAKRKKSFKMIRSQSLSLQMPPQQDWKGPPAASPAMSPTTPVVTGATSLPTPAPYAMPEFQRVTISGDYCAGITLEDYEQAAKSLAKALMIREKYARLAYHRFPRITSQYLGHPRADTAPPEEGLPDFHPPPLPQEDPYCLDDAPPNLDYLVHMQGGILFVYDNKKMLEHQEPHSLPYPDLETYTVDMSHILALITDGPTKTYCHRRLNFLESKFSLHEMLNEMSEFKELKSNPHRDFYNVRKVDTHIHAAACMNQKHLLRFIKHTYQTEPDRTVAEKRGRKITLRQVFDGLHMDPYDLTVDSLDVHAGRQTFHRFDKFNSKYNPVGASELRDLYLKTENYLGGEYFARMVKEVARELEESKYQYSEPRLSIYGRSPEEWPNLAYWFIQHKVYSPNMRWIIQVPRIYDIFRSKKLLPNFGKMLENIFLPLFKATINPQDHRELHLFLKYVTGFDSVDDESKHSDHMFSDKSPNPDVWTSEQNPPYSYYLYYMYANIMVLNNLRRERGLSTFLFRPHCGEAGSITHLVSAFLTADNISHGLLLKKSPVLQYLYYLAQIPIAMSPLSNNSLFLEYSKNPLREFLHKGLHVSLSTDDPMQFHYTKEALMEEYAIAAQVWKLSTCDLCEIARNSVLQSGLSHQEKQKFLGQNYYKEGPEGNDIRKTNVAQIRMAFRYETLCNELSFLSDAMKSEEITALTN
UniProt P04075: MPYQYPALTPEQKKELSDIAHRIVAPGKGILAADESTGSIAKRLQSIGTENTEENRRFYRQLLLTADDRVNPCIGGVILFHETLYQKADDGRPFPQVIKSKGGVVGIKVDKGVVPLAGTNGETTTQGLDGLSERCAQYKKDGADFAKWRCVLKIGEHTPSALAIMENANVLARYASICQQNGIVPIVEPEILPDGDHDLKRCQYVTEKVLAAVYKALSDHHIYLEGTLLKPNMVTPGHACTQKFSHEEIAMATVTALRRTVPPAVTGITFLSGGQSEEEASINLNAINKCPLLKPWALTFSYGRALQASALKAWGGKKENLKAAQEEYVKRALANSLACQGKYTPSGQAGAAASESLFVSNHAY
UniProt Q9UJX3, whole entry, looked up: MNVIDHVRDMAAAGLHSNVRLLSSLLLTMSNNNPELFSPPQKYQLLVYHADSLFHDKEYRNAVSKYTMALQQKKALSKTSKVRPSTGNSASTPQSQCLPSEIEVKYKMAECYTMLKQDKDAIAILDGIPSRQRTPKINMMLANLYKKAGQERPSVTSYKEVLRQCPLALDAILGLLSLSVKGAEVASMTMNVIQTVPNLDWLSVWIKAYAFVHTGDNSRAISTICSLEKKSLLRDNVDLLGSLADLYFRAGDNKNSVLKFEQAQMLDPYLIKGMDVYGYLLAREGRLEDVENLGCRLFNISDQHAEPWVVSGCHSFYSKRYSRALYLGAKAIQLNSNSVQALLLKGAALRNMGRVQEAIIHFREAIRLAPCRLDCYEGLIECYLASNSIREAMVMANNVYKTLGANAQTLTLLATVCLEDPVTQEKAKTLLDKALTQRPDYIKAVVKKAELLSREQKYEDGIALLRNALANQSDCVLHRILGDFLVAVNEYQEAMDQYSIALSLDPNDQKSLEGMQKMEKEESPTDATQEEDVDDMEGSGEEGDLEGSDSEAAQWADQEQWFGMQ
UniProt O43865, whole entry, looked up: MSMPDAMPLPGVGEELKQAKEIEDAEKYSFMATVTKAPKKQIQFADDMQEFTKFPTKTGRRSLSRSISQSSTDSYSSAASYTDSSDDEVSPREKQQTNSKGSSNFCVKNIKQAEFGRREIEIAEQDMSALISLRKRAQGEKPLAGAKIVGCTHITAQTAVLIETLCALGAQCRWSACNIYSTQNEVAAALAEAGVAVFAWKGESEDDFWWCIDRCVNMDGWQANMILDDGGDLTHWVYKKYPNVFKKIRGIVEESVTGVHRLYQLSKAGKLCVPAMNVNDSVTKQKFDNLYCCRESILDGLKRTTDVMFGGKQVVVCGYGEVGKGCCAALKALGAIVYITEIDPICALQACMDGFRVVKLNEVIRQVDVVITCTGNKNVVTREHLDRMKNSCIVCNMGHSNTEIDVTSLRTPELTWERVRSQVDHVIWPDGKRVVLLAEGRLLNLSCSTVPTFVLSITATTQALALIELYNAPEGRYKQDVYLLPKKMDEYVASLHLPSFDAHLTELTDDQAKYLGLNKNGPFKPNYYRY
UniProt P51649: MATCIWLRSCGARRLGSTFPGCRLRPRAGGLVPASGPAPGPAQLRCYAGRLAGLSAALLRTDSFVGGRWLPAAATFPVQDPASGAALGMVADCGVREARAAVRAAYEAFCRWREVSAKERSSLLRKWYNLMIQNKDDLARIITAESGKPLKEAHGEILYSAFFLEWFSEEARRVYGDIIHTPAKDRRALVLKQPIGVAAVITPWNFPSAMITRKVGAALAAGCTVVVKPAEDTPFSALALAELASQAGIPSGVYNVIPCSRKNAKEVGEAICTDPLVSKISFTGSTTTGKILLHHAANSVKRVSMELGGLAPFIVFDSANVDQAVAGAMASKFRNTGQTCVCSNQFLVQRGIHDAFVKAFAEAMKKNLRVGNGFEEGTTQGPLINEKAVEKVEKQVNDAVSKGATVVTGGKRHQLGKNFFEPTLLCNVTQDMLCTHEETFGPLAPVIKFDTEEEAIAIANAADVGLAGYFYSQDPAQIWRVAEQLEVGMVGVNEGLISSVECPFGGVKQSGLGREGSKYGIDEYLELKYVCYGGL
UniProt P05091: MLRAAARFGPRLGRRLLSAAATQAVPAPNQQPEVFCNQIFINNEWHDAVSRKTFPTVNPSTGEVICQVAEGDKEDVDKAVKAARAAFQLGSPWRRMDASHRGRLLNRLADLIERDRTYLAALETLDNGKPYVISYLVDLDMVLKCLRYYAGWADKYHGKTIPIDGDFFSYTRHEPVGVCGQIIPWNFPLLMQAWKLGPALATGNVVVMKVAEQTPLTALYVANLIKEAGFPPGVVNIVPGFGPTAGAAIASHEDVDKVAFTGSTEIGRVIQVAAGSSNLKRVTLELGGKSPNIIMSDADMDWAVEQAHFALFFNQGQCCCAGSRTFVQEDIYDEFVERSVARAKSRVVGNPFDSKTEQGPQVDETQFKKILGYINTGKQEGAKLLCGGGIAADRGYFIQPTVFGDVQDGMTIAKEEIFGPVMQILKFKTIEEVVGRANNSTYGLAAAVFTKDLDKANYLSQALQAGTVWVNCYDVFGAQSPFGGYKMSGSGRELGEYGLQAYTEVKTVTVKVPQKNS
UniProt Q2TAA5: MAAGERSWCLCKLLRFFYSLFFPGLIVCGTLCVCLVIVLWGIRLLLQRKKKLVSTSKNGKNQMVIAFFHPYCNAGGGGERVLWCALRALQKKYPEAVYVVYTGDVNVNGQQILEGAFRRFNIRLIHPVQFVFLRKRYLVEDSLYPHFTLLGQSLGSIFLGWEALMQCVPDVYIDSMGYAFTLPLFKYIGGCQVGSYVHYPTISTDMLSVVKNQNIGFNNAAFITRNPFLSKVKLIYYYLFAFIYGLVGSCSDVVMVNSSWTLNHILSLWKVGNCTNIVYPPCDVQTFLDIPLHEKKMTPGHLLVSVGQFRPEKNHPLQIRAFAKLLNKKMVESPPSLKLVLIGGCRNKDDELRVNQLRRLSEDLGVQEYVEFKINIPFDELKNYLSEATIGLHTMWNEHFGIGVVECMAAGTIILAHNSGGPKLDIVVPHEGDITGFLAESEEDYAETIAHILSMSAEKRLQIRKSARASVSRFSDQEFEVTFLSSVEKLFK
UniProt Q9UJX5, whole entry, looked up: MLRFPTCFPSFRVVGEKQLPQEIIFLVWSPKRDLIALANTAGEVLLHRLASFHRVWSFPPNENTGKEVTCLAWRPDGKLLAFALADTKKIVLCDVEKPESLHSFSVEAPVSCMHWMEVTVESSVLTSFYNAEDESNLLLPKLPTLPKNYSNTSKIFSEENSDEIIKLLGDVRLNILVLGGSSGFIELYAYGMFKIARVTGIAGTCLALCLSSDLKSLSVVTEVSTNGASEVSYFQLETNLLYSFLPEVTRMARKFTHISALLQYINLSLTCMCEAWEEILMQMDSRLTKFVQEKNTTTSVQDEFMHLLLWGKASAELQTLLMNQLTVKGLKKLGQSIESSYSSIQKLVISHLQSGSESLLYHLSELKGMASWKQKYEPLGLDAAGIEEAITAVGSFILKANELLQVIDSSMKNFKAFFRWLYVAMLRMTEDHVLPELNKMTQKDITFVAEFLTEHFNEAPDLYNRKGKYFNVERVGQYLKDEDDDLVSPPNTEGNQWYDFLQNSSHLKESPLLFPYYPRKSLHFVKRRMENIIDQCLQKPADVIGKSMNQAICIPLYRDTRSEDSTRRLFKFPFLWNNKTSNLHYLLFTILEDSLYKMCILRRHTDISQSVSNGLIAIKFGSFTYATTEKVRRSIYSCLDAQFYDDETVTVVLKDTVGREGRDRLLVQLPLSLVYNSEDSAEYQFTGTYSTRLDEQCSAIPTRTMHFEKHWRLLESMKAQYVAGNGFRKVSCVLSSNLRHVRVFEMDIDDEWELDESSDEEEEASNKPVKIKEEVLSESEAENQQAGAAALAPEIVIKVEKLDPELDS

This is one part of the list.
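Also: competitive profiling in live THP-1 cells: cysteine peptides tagged with an iodoacetamide desthiobiotin (IA-DTB) probe, intensity after compound treatment relative to DMSO-treated cells.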

Compound in this assay: Cc1cc(ccc1-c1ccccc1)C(=O)N1CCCN(CC1)C(=O)CCl [compound 10]
Description: probe-labelled cysteine peptide fold change vs DMSO (competition) (log2 fold change); higher = less target engagement (more negative = stronger competition). The following applies: 10 µM; THP-1; incubation time: 4 h.
As for “ALG2_Q9H553_59_IWTAHYDPGHCFAESR (UniProt Q9H553)”, the “probe-labelled cysteine peptide fold change” value is -0.0245.

In the case of “ANAPC1_Q9H1A4_962_DAIYHCR (UniProt Q9H1A4)”, the “probe-labelled cysteine peptide fold change” value stood at 0.0454.

Take “AMBP_P02760_277_ECLQTCR (UniProt P02760)”: the “probe-labelled cysteine peptide fold change” value is -0.0115.

For “AMPD2_Q01433_107_SLPGPAPCLK (UniProt Q01433)”, the “probe-labelled cysteine peptide fold change” value was -0.0605.

With “AMPD3_Q01432_47_DALSLFTVPEDCPIGQK (UniProt Q01432)”, the “probe-labelled cysteine peptide fold change” value is -0.0813.

As to AK2_P54819_92_NLETPLCK (UniProt P54819), the “probe-labelled cysteine peptide fold change” value was -0.166.

For “ALDOA_P04075_339_ALANSLACQGK (UniProt P04075)”, the “probe-labelled cysteine peptide fold change” value is -0.0738.

As to “ANAPC7_Q9UJX3_131_VRPSTGNSASTPQSQCLPSEIEVK (UniProt Q9UJX3)”, the “probe-labelled cysteine peptide fold change” value is -0.28.

With “AHCYL1_O43865_317_QVVVCGYGEVGK (UniProt O43865)”, the “probe-labelled cysteine peptide fold change” value was -0.132.

Regarding “ALDH5A1_P51649_93_WLPAAATFPVQDPASGAALGMVADCGVR (UniProt P51649)”, the “probe-labelled cysteine peptide fold change” value was determined as 0.0442.

For “ALDOA_P04075_202_CQYVTEK (UniProt P04075)”, the “probe-labelled cysteine peptide fold change” value was 0.126.

For the target “AHCYL1_O43865_373_QVDVVITCTGNK (UniProt O43865)”, the “probe-labelled cysteine peptide fold change” value amounted to 0.0162.

In the case of “AHCYL1_O43865_151_IVGCTHITAQTAVLIETLCALGAQCR (UniProt O43865)”, the “probe-labelled cysteine peptide fold change” value stood at 0.204.

In the case of “ALDH2_P05091_66_KTFPTVNPSTGEVICQVAEGDKEDVDK (UniProt P05091)”, the “probe-labelled cysteine peptide fold change” value is -0.221.

On to “ALG11_Q2TAA5_72_NQMVIAFFHPYCNAGGGGER (UniProt Q2TAA5)”, for which the “probe-labelled cysteine peptide fold change” value turned out to be 0.0627.

For the target “ANAPC4_Q9UJX5_732_KVSCVLSSNLR (UniProt Q9UJX5)”, the “probe-labelled cysteine peptide fold change” value worked out at 0.0537.
